Measured values from patent US20210128561A1, “MRGX Receptor Antagonists” (Rheinische-Friedrich-Wilhelms-Universität Bonn, priority 2019, published 2021).
The structures given here were assigned with low confidence; some may be wrong.

Amino acid sequences for entries named in this document (tags omitted).
UniProt Q96LA9, whole entry L83S: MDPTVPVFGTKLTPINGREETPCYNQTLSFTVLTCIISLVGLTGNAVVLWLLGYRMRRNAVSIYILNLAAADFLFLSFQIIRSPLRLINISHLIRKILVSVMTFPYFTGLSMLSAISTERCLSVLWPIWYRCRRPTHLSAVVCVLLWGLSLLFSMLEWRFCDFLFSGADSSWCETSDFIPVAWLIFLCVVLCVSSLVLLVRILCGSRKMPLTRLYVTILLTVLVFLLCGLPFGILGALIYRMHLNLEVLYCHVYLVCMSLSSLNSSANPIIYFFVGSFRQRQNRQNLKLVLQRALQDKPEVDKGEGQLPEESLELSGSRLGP

Target: human MrgX4 L83S (Homo sapiens, UniProt Q96LA9, L83S)
Assay: β-arrestin assay (CHO β-arrestin human MrgX4 L83S)
Type: cell-based

- IC50: > 10 µM
SMILES: COc1ccc(-c2cc(=O)n3c(n2)[nH]c2ccccc23)cc1
